Measured values taken from PubChem BioAssay AID597 (National Center for Advancing Translational Sciences (NCATS), 2007).
The campaign covered roughly 68,000 compounds. About 60 (0.09%) were called active. The shares of active, inactive and inconclusive entries below differ from those in the screen. Calls come from the whole dose curve; as a rule, active = well fitted curve in the direction sought with a large enough effect; inconclusive = small, poorly fitted or top-dose-only effect; inactive = flat fitted curve, though single readings scatter. Where the call is inconclusive, the potency comes from a doubtful curve fit.

assay: qHTS Assay for Epigenetic Modulators; conditions: mouse C127i GFP locus derepression, cytometry, 30 h; series mostly up to 46.1 µM; for GFP derepression (activation): % of control where 0% means no effect
Description: NIH Molecular Libraries Screening Centers Network [MLSCN] NIH Chemical Genomics Center [NCGC] MLSCN Grant: 1 X01 MH079860-01 Assay Provider: Elisabeth D. Martinez, University of Texas SW Medical Center NCGC Assay Overview: The Locus Derepression assay detects the derepression of a GFP reporter that is stably integrated in a region of the genome of murine c127i mammary cells that is presumably silenced. GFP transcription in this construct is controlled by a CMV promoter, which normally is strong and constitutively active. However, this line was selected for lack of constitutive expression of the GFP protein. GFP production can be induced by incubating the cells with histone deacetylase or DNA methyltransferase inhibitors. Compounds that cause derepression of the locus to express GFP are identified by enumerating GFP positive cells using a laser-scanning microplate cytometer. For further details of this screen and follow-up characterization, see R.L. Johnson, W. Huang, A. Jadhav, C.P. Austin, J. Inglese, E.D. Martinez, A Quantitative High-Throughput Screen Identifies Potential Epigenetic Modulators of Gene Expression, Analytical Biochemistry (2008) 375(2):237-48.
NCGC Assay Protocol Summary: Two hundred and fifty cells in 5 uL per well were dispensed into black, clear-bottom 1536-well plates. Twenty-three nL compound was transferred to the assay plate and cells were incubated 30 hours at 37 C. Medium was removed, cells were washed two times with PBS, and GFP-positive cells were enumerated as fluorescent objects between the sizes of 20 to 120 um width and depth using an Acumen Explorer. Keywords: NIH Roadmap, MLSCN, MLI, MLSMR, qHTS, NCGC, qHTS, HDAC, DNMT, HAT, DNA methyltransferases, histone acetyl transferases, histone deacetylases

| Compound | Potency | GFP derepression (activation) |
| --- | --- | --- |
| CCOC(=O)NCC(C)(C)CNC(=O)OCC | inconclusive: 31.6 µM [single point] |  |
| CCC(CC)C(=O)Nc1cccc(C(=O)N2CCOCC2)c1 | inactive |  |
| CCOc1ccccc1N1CCN(c2nc3ccccc3nc2C(C#N)C(=O)OC)CC1 (stereo not given) | inconclusive: 15.8 µM [single point] |  |
| CCCc1[nH]nc2c1C(c1cccc(OC)c1)C(C#N)=C(N)O2 (stereo not given) | inconclusive: 5.01 µM [single point] |  |
| CCN(CC)c1ccc2c(c1)CCCN2 | inconclusive: 3.16 µM [partial curve] |  |
| CCCCn1c(=O)[nH]c(=O)c2c1nc(CN1C(=O)c3ccccc3S1(=O)=O)n2CCC | inactive |  |
| CC1=C(C(N)=O)C(c2ccco2)C(C(N)=O)=C(C)N1 | inconclusive: 31.6 µM [single point] |  |
| CCOC(=O)c1cnc(-n2nc(C)cc2C)nc1NCCc1ccccc1 | inconclusive: 31.6 µM [single point] |  |
| COc1cccc(-c2cc(C(=O)N3CC4(C)CC3CC(C)(C)C4)no2)c1 (stereo not given) | inactive |  |
| COc1ccc2nc(Nc3nc(C)c(C(C)=O)s3)sc2c1 | inconclusive: 25.1 µM [single point] |  |
| C=CCn1c(SCC(=O)NCCOC)nc2scc(-c3ccco3)c2c1=O | inconclusive: 31.6 µM [single point] |  |
| CCN(CC)c1ccc2cc(-c3nc4ccccc4n3C)c(=O)oc2c1 | active: 10 µM |  |
| COc1ccccc1CN(Cc1cc2cc(C)ccc2[nH]c1=O)Cc1nnnn1Cc1ccco1 | inconclusive: 31.6 µM [single point] |  |
| CSc1nsc(SC)c1C(=O)NCCNS(=O)(=O)c1ccc(C)cc1 | inconclusive: 25.1 µM [single point] |  |
| C/C(=C\C(=O)c1cccnc1)Nc1ccc(C)c(C)c1 | inconclusive: 31.6 µM [single point] |  |
| O=C(NCc1nnc(SCC(=O)N2CCC(Cc3ccccc3)CC2)o1)c1ccccc1F | inconclusive: 3.98 µM [single point] |  |
| Cc1ccc(C2C3CSCC=C3C(C#N)=C(N)C2(C#N)C#N)cc1 (stereo not given) | inactive |  |
| C=CCNC(=O)CN(c1ccc(F)c(Cl)c1)S(C)(=O)=O | inconclusive: 31.6 µM [single point] |  |
| CN(C)c1ccc(NC(=S)c2ccccn2)cc1 | inconclusive: 31.6 µM [single point] |  |
| N#Cc1c(-c2ccccc2)no[n+]1[O-] | inconclusive: 39.8 µM [single point] |  |
| Nc1nc(Cn2nnc(-c3ccccc3F)n2)nc(N2CCOCC2)n1 | inactive |  |
| CCOC(=O)c1cc2c(=O)n3ccccc3nc2n(CCOC)c1=NC(=O)C(C)(C)C | inactive |  |
| CC1=C(C)CS(=O)N(c2ccc(S(N)(=O)=O)cc2)C1 (stereo not given) | inconclusive: 31.6 µM [single point] |  |
| C/C=C/Cn1c(SCc2ccc(C)cc2)nc2c1c(=O)[nH]c(=O)n2C | inactive |  |
| Cc1cc(C)cc(-n2c3nc4ccccc4nc3c3c(=O)n(Cc4ccco4)cnc32)c1 | active: 12.6 µM |  |
| O=C1CN(/N=C\c2ccc([N+](=O)[O-])o2)C(=O)N1 | inconclusive: 12.6 µM [single point] |  |
| COC(=O)C(CC(=O)c1ccc(Br)cc1)n1ccnc1 (stereo not given) | inconclusive: 25.1 µM [single point] |  |

| Compound | Potency | GFP derepression (activation) |
| --- | --- | --- |
| O=C(CCCn1c(=S)[nH]c2cc3c(cc2c1=O)OCO3)NC1CC1 | inconclusive: 31.6 µM [single point] |  |
| COc1ccc(-c2cc(-c3cc(F)ccc3O)[nH]n2)cc1OC | inactive |  |
| COc1ccc(N=c2oc3c(OC)cccc3cc2C(=O)NCc2ccco2)cc1OC | inconclusive: 31.6 µM [single point] |  |
| O=c1c[n+]([O-])c2ccccc2n1OCc1c(F)cccc1F | inconclusive: 25.1 µM [single point] |  |
| Cc1nnc(NC(=O)c2ccc3ccccc3c2)o1 | inconclusive: 31.6 µM [single point] |  |
| Cc1ccc(C(=O)Nc2ccccc2N2CCN(C(=O)C(C)C)CC2)cc1 | inactive |  |
| COc1ccc(-n2c(=O)c(-c3cc(F)cc(F)c3)nc3cnc(N(C)C)nc32)cc1 | inconclusive: 1 µM [single point] |  |
| CC(=O)[C@H]([C@@H](c1ccccc1)N1CCOCC1)N1CCOCC1 |  | inactive: -3.4% [at 9.22 µM] |
| CCN=c1scc(-c2ccc3c(c2)NC(=O)CO3)n1N=C1CCCC1 | inconclusive: 31.6 µM [single point] |  |
| CC1CCN(c2nncc3ccccc23)CC1 | inactive |  |
| COc1ccc(-c2nc3cnc(OC)nc3n(C[C@H]3CCCO3)c2=O)cc1 |  | inactive: -0.4% [at 9.22 µM] |
| NS(=O)(=O)c1ccc(N=Nc2ncccc2O)cc1 |  | inactive: -2.2% [at 9.22 µM] |
| Clc1ccc(N2CCN(c3ncnc4c3oc3ccccc34)CC2)cc1 | inactive |  |
| COc1c2occc2cc2ccc(=O)oc12 | inactive |  |
| CCCc1nc2ccccc2c(=O)n1/N=C/c1ccc(O)cc1 | inactive |  |
| N#CCCn1c(=O)c(-c2cc(F)cc(F)c2)nc2cnc(Oc3cccc(Cl)c3)nc21 |  | inactive: -2.7% [at 9.22 µM] |
| O=C(Oc1ccc(OC(=O)N2CCOCC2)cc1)c1ccccc1 | inactive |  |
| CN(C)C=Nc1c(Br)cc(Br)c2nonc12 | inconclusive: 31.6 µM [single point] |  |
| CCNc1ncc2nc(-c3cn(C)c4ccccc34)c(=O)n(-c3ccccc3)c2n1 | inconclusive: 1.26 µM [single point] |  |
| Cc1nn(CCO)c2c1C(=O)CCC2 | inconclusive: 5.01 µM [single point] |  |
| O=C(c1ccc2c(c1)N(Cc1ccc(F)cc1)C(=O)CS2)N1CCOCC1 | inconclusive: 5.01 µM [single point] |  |
| Fc1ccc(C2C3=C(Nc4ncnn42)c2ccccc2OC3c2ccncc2)cc1 (stereo not given) | inconclusive: 12.6 µM [partial curve] |  |
| CN1C(=O)c2cccc(NCCCN3C(=O)c4ccccc4C3=O)c2C1=O | inconclusive: 31.6 µM [single point] |  |
| N#Cc1c(C(F)(F)F)cc(-c2ccco2)nc1SCc1ccccn1 | inconclusive: 31.6 µM [single point] |  |
| CC1CC(C)(C)Nc2ccc(OC(=O)c3ccco3)cc21 (stereo not given) | inconclusive: 3.98 µM [single point] |  |
| OC1C=CSc2nc3ccccc3n21 (stereo not given) | inconclusive: 31.6 µM [single point] |  |
| Cc1nc(Nc2nc(-c3ccccc3)cc(=O)[nH]2)nc2ccccc12 | inconclusive: 31.6 µM [single point] |  |

| Compound | Potency | GFP derepression (activation) |
| --- | --- | --- |
| Cc1ccccc1CS(=O)(=O)c1nnc([C@H](CC(C)C)NC(=O)OC(C)(C)C)o1 | inconclusive: 5.01 µM [single point] |  |
| CC/C(=N\O)c1ccc(OC)c(OC)c1 | inconclusive: 12.6 µM [single point] |  |
| O=C(Nc1cccc(NS(=O)(=O)c2ccc(S(=O)(=O)NC3CC3)cc2)c1)c1ccccn1 | inconclusive: 5.01 µM [single point] |  |
| Cn1nc(C(=O)NCc2ccc(F)cc2)c2ccccc2c1=O | inconclusive: 5.01 µM [single point] |  |
| c1ccc(-c2nc3nonc3nc2-c2ccccc2)cc1 | inactive |  |
| CN(C)C(=O)CSc1cccc2cccnc12 | inconclusive: 5.01 µM [single point] |  |
| C1=C(c2ccccc2)CCN(c2nc3ccccc3n3cnnc23)C1 | inactive |  |
| O=C(Nc1ccc(NC(=O)C23CC4CC(CC(C4)C2)C3)cn1)c1ccco1 | inactive |  |
| CCSc1ccccc1C(=O)n1nnc2ccccc21 | inconclusive: 20 µM [single point] |  |
| COc1cccc2sc(Nc3nc(-c4ccccn4)cs3)nc12 | inconclusive: 20 µM [single point] |  |
| CCNc1nc(NCC)nc(-n2nc(C)cc2C)n1 | inconclusive: 20 µM [single point] |  |
| CCCCCCC(=O)N(O)C1CC(=O)N(Cc2ccccc2)C1=O (stereo not given) | inconclusive: 31.6 µM [single point] |  |
| CCN1C(=O)/C(=C/N2CCc3ccccc32)SC1=S | inactive |  |
| O=C1CCCC(O)=C1C(C#Cc1ccccc1)C1=C(O)CCCC1=O | inconclusive: 31.6 µM [single point] |  |
| COC(=O)c1ccccc1COn1c(=O)c[n+]([O-])c2ccccc21 | inconclusive: 31.6 µM [single point] |  |
| Fc1ccc(Nc2ccnc(-c3ccccc3C(F)(F)F)n2)cc1 | inconclusive: 1.26 µM [single point] |  |
| CCOc1ccc2[nH]c(=O)c(=O)[nH]c2c1 | inactive |  |
| CCN(CC)c1ccc2cc(C(=O)Nc3ccc(-n4cnnn4)c(OC)c3)c(=O)oc2c1 | inconclusive: 25.1 µM [single point] |  |
| CN(C)c1ncc2nc(-c3ccc(Cl)cc3)c(=O)n(C3CC3)c2n1 | inconclusive: 5.01 µM [single point] |  |
| CCN(CC)C[C@@H](O)c1ccc2ccc3ccccc3c2c1 | inconclusive: 1.26 µM [single point] |  |
| CC(=O)C1=C(O)C(=O)N(c2ccc(C(=O)O)cc2)C1c1ccccc1 (stereo not given) | inconclusive: 12.6 µM [single point] |  |
| Cn1c(=O)c(C(=O)CN2CCCc3ccccc32)c(N)n(Cc2ccccc2)c1=O | inactive |  |
| CN1CCN(CCCN2c3ccccc3Sc3ccc(S(=O)(=O)N(C)C)cc32)CC1 | inactive |  |
| CCC(C)[C@@H](NC(=O)OC(C)(C)C)c1nnc(S(=O)(=O)Cc2cccc(C)c2)o1 (stereo not given in full) | inconclusive: 3.16 µM [single point] |  |
| O=C(CC(c1ccco1)S(=O)(=O)c1ccccc1)c1ccc(F)cc1 (stereo not given) | active: 3.16 µM |  |
| c1ccc(-c2nc(NCC3CCCO3)c3ccccc3n2)nc1 (stereo not given) | inconclusive: 12.6 µM [single point] |  |

Part of the list above in order of heavy-atom count, ascending.

| Compound | Potency | GFP derepression (activation) |
| --- | --- | --- |
| OC1C=CSc2nc3ccccc3n21 (stereo not given) | inconclusive: 31.6 µM [single point] |  |
| Fc1ccc(Nc2ccnc(-c3ccccc3C(F)(F)F)n2)cc1 | inconclusive: 1.26 µM [single point] |  |
| O=C(Nc1cccc(NS(=O)(=O)c2ccc(S(=O)(=O)NC3CC3)cc2)c1)c1ccccn1 | inconclusive: 5.01 µM [single point] |  |
| COc1ccccc1CN(Cc1cc2cc(C)ccc2[nH]c1=O)Cc1nnnn1Cc1ccco1 | inconclusive: 31.6 µM [single point] |  |
